Source: patent US20080199449A1, “Methods and Compositions for Use in Treating Vascular Diseases and Conditions” (The General Hospital Corporation, priority 2005, published 2008)
Entries after “also recorded” stand apart in the source; their conditions may differ. For at least one compound, name, drawing or mass did not settle the structure.

System: gridlock phenotype (atresia of the proximal aorta in grl^m145 mutants)
Assay: Suppression of the gridlock phenotype (restoration of trunk and tail circulation) in grl^m145 mutant embryos
Type: in vivo, zebrafish
Details: for Suppression of the gridlock phenotype, single treatment at sub-effective dose: GS4898 0.75 μM, LY294002 3 μM, wortmannin 0.075 μM, GS4012 0.7 μg/mL (FIG. 1F); for Suppression of the gridlock phenotype, co-treatment with GS4012 (synergy): co-treatment with GS4012 0.7 μg/mL plus GS4898 0.75 μM, LY294002 3 μM or wortmannin 0.075 μM (FIG. 1F); for Suppression of the gridlock phenotype (tail circulation): homozygous grl^m145 mutant zebrafish embryos
Procedure: Screening for suppressors of the gridlock phenotype. The screen was performed as previous described with modifications (Peterson et al., Nature Biotechnology 22:595-599, 2004). Briefly, pairs of homozygous grl^m145 zebrafish were mated, and fertilized eggs were arrayed in 96-well plates containing E3 embryo buffer. At the 6-somite stage, small molecules from the DiverSet E library (Chembridge) were added to each well, yielding a final concentration of 2.5 μM. Embryos were incubated at 28.5° C. for 48 hrs. Circulation to the tail was assessed visually using a dissecting microscope.
Fluorescent microangiography. Fluorescence microangiography was performed as previously described (Weinstein et al., Nature Medicine 1:1143-1147, 1995).

## O=c1cc(N2CCOCC2)oc2c(-c3ccccc3)cccc12 [LY294002]
  Suppression of the gridlock phenotype, single treatment at sub-effective dose: does not suppress
  Suppression of the gridlock phenotype, co-treatment with GS4012 (synergy): synergize with GS4012; also recorded: significant suppression
  Suppression of the gridlock phenotype (tail circulation): capable of suppressing the gridlock phenotype; also recorded: suppressed; also recorded: suppress the gridlock vascular defect

## COC[C@H]1OC(=O)c2coc3c2[C@@]1(C)C1=C(C3=O)[C@@H]2CCC(=O)[C@@]2(C)C[C@H]1OC(C)=O [wortmannin]
  Suppression of the gridlock phenotype, single treatment at sub-effective dose: does not suppress
  Suppression of the gridlock phenotype, co-treatment with GS4012 (synergy): synergize with GS4012; also recorded: significant suppression
  Suppression of the gridlock phenotype (tail circulation): suppresses the gridlock phenotype; also recorded: suppressed; also recorded: suppress the gridlock vascular defect
